Laboratory results: patent EP1752538A1
These are yes or no findings as the source states them, for the method shown. Some results given as binding are weak or reduced against the parent protein; the word gives no strength.

Protein sequences, listed by entry. Tags and fused reporters are not part of them. Lines headed by an entry give the natural chain unless they say otherwise; changes in a name come on top. Residues count along the entry.
UniProt P00760, residues 24-246: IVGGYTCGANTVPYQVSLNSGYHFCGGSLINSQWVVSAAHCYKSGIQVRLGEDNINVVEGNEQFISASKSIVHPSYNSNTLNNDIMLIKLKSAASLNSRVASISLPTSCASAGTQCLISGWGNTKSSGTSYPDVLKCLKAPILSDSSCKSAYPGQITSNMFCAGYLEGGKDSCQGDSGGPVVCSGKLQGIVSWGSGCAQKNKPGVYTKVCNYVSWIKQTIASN
UniProt O43291: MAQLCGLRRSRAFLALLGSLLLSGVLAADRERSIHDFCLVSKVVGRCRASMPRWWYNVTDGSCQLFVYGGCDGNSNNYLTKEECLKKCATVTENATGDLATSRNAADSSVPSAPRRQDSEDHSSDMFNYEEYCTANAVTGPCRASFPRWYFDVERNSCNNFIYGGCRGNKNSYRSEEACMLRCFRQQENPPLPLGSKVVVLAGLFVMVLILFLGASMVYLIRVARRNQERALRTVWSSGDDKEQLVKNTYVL

Target: bovine trypsin (type III) (bovine) (UniProt P00760)
Test: trypsin inhibition assay with 50 ul yeast supernatant

binding: binds
Substance: recombinant placental bikunin (102-159) expressed in yeast strain SC101 (from UniProt O43291 129-186)
